This is one part of the list.

From the supplement of paper PMC8426693 come the findings set out here.

One experiment deals with SARS-CoV-2 5_SL7 RNA. The experiment is described as follows: NMR binding call after quantification (hit when 2 of 3 NMR criteria are met) (binary (1 = binding, 0 = not binding)); higher = binding. The following applies: RNA concentration 10 µM; fragment concentration 200 µM; 293 K.
As for `CC(=O)Nc1cccc2nonc12`, the NMR binding call came to 0.
`CCNc1ccc(C#N)cn1` showed an NMR binding call of 0.
On to `CC1CCC(C(=O)N2CCC=C(F)C2)O1` (stereo not given), for which the NMR binding call was found to be 0.
The same measure, in the same setting: then `CC(C)NCc1ccc(N(C)C)cc1`, with 0; and `Cc1cc(C(=O)NCc2cccs2)no1`, with 0.
On to `CCOC(=O)NCc1ccccc1`, for which the NMR binding call worked out at 0.
As for `CS(=O)(=O)N1CCCC(C(=O)O)C1` (stereo not given), the NMR binding call worked out at 0.
The compound `CNC(=O)c1nc2ccccc2c(=O)[nH]1` came in with an NMR binding call of 0.
Compound `CC(C)(C)C1CCN(C(=O)c2ccccc2)CC1` had an NMR binding call of 0.
On the same count and under the same terms, then `CC(=O)NC1CNc2ccccc2C1` (stereo not given), with 0.
`CN1CCC(Oc2cccc(F)c2)C1=O` (stereo not given) registered an NMR binding call of 0.
Consider `CNC1CCN(c2ccccc2F)C1=O.Cl` (stereo not given), for which the NMR binding call worked out at 0.
With `CC(=O)NCCN1CCCCCC1`, the NMR binding call worked out at 0.
Turning to `CCNC(=O)c1c[nH]nn1`, the NMR binding call turned out to be 0.
The same measure, in the same setting: to `CC(=O)NCC1(O)CCCC1` belongs 0.
The compound `CC(=O)Nc1ccc(CN2CCOCC2)cc1` yielded an NMR binding call of 0.
Turning to `O=C(O)Cc1ccc(-c2ccccc2)cc1`, the NMR binding call was 0.
Turning to `Cc1noc(NC(=O)CC2CCCC2)n1`, the NMR binding call came out at 0.
The compound `COc1ccc(C(=O)C2CCNCC2)cc1` displayed an NMR binding call of 0.
In turn, `NC(=O)c1ccc(OCc2ccccc2)cc1` showed an NMR binding call of 0.
Still for that read-out and setting: to `O=C(c1ccc2c(c1)OCO2)N1CCCCCC1` belongs 0.
The same measure, in the same setting: to `CN(C)C(=O)OCCn1ccnc1` belongs 0.
Consider `CC(C)NC(=O)c1ccc2ccccc2n1`, for which the NMR binding call is 0.
In turn, `CCC(=O)Nc1nc(C)cs1` gave an NMR binding call of 0.
As to `Cc1ccc(NC(=O)C2CCCO2)nc1` (stereo not given), the NMR binding call came out at 0.
For the compound `NC(=O)c1ccnc(NC2CC=CC2)c1`, the NMR binding call was determined as 0.
Same read-out and setting: then `Cl.NC1CCN(S(=O)(=O)c2ccccc2)C1` (stereo not given), with 0; and `O=C(NCc1ccco1)Nc1ccc(F)cc1`, with 0.
The compound `Cc1cc(N(C)C2CC(O)C2)nc(C)n1` (stereo not given) registered an NMR binding call of 0.
In turn, `CNC1CCCN(c2ccccc2)C1=O` (stereo not given) yielded an NMR binding call of 0.
In the case of `O=C(Nc1ccc(O)cc1)N1CCOCC1`, the NMR binding call turned out to be 0.
In turn, `O=c1[nH]cc(N2CCCCC2)c(=O)[nH]1` displayed an NMR binding call of 0.
In the case of `COC(=O)CNC(=O)C1CCCCC1`, the NMR binding call turned out to be 0.
Still for that read-out and setting: to `Cn1nccc1C(=O)NCc1cccs1` belongs 0; to `Cc1nn(C)c(C)c1NC(=O)CC#N`, 0.
The same measure, in the same setting: to `CC(C)C(=O)Nc1ccc(N2CCCCC2)cc1` belongs 0; to `CC(=O)Nc1ccccc1OCc1ccccc1`, 0; to `O=C(COc1ccccc1)Nc1cccc(F)c1`, 0.
With `O=C(NCc1nc2ccccc2[nH]1)c1ccco1`, the NMR binding call amounted to 0.
Consider `CCOc1cccc(C(=O)Nc2nnn(C)n2)c1`, for which the NMR binding call is 0.

The subject of the next experiment is SARS-CoV-2 5_SL8 RNA. The description is as above. Conditions: RNA concentration 10 µM; fragment concentration 200 µM; 293 K.
On to `CC(=O)Nc1cccc2nonc12`, for which the NMR binding call was 0.
The compound `CCNc1ccc(C#N)cn1` displayed an NMR binding call of 0.
For `CC1CCC(C(=O)N2CCC=C(F)C2)O1` (stereo not given), the NMR binding call was found to be 0.
As to `CC(C)NCc1ccc(N(C)C)cc1`, the NMR binding call stood at 0.
`Cc1cc(C(=O)NCc2cccs2)no1` came in with an NMR binding call of 0.
On the same count and under the same terms, to `CCOC(=O)NCc1ccccc1` belongs 0; to `CS(=O)(=O)N1CCCC(C(=O)O)C1` (stereo not given), 0.
Compound `CNC(=O)c1nc2ccccc2c(=O)[nH]1` displayed an NMR binding call of 0.
Still for that read-out and setting: to `CC(C)(C)C1CCN(C(=O)c2ccccc2)CC1` belongs 0.
Consider `CC(=O)NC1CNc2ccccc2C1` (stereo not given), for which the NMR binding call was 0.
`CN1CCC(Oc2cccc(F)c2)C1=O` (stereo not given): the NMR binding call amounted to 0.
`CNC1CCN(c2ccccc2F)C1=O.Cl` (stereo not given) gave an NMR binding call of 0.
As for `CC(=O)NCCN1CCCCCC1`, the NMR binding call was determined as 0.
On the same count and under the same terms, to `CCNC(=O)c1c[nH]nn1` belongs 0; to `CC(=O)NCC1(O)CCCC1`, 0.
As for `CC(=O)Nc1ccc(CN2CCOCC2)cc1`, the NMR binding call was found to be 0.
For the compound `O=C(O)Cc1ccc(-c2ccccc2)cc1`, the NMR binding call was 0.
`Cc1noc(NC(=O)CC2CCCC2)n1` yielded an NMR binding call of 0.
`COc1ccc(C(=O)C2CCNCC2)cc1`: the NMR binding call came to 0.
`NC(=O)c1ccc(OCc2ccccc2)cc1` gave an NMR binding call of 0.
Still for that read-out and setting: then `O=C(c1ccc2c(c1)OCO2)N1CCCCCC1`, with 0; and `CN(C)C(=O)OCCn1ccnc1`, with 0.
In turn, `CC(C)NC(=O)c1ccc2ccccc2n1` showed an NMR binding call of 0.
On to `CCC(=O)Nc1nc(C)cs1`, for which the NMR binding call came to 0.
For `Cc1ccc(NC(=O)C2CCCO2)nc1` (stereo not given), the NMR binding call is 0.
Regarding `NC(=O)c1ccnc(NC2CC=CC2)c1`, the NMR binding call was 0.
`Cl.NC1CCN(S(=O)(=O)c2ccccc2)C1` (stereo not given) showed an NMR binding call of 0.
`O=C(NCc1ccco1)Nc1ccc(F)cc1` displayed an NMR binding call of 0.
Same read-out and setting: to `Cc1cc(N(C)C2CC(O)C2)nc(C)n1` (stereo not given) belongs 0; to `CNC1CCCN(c2ccccc2)C1=O` (stereo not given), 0.
Take `O=C(Nc1ccc(O)cc1)N1CCOCC1`: the NMR binding call was found to be 0.
In turn, `O=c1[nH]cc(N2CCCCC2)c(=O)[nH]1` returned an NMR binding call of 0.
Still for that read-out and setting: then `COC(=O)CNC(=O)C1CCCCC1`, with 0.
Consider `Cn1nccc1C(=O)NCc1cccs1`, for which the NMR binding call is 0.
On to `Cc1nn(C)c(C)c1NC(=O)CC#N`, for which the NMR binding call turned out to be 0.
Still for that read-out and setting: to `CC(C)C(=O)Nc1ccc(N2CCCCC2)cc1` belongs 0; to `CC(=O)Nc1ccccc1OCc1ccccc1`, 0.
Still for that read-out and setting: to `O=C(COc1ccccc1)Nc1cccc(F)c1` belongs 0.
With `O=C(NCc1nc2ccccc2[nH]1)c1ccco1`, the NMR binding call stood at 0.
Turning to `CCOc1cccc(C(=O)Nc2nnn(C)n2)c1`, the NMR binding call came to 0.
